Measurements from PubChem BioAssay AID624291 (National Center for Advancing Translational Sciences (NCATS), 2012).
Among all 350,000 compounds or so, about 220 (0.063%) were called active. Inconclusive means that the source gave no clear call. Such entries were picked first, then a sample of the others. Calls follow the shape of the dose curve; as a rule, active = well fitted activation curve with a large enough effect; inconclusive = small, poorly fitted or top-dose-only effect; inactive = no such curve, though single readings can be large or run the other way. Potencies of inconclusive entries are doubtful fits and often do not repeat.

test: qHTS for Activators of Integrin-Mediated Alleviation for Muscular Dystrophy; conditions: alpha7betagal myoblasts, beta-gal FDG fluorescence, 48 h; activation: at 38.3 µM (top of the series); also: nearly all actives have a fitted effect of over 60% in size;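 as to activation: 100% = response of the positive control SU9516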
How it was run: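 Alpha7betagal+/- myoblasts (passage 13) were plated 16-24 hr, then exposed to compounds (1:260 dilution of DMSO stock) for 48 hours at 37C. After MPER lysis, β-galactosidase reporter activity was read as FDG fluorescence (ex 480/em 540) after 30 minutes.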
Potency is read from the fitted curve at half-maximal effect.

Row | SMILES | Potency | activation
1 | O=C(Cn1c2ccccc2c2nc3n(c(=O)c21)CCS3)Nc1ccccc1C(F)(F)F | inactive | –
2 | COc1ccc(CNC(=S)Nc2ccc(F)c(Cl)c2)cc1 | inactive | –
3 | O=C(CSc1nnc(-c2ccccc2Cl)o1)N1CCCC1 | inconclusive: 5.01 µM [activator, single point] | –
4 | CCCCCNCC(=O)Nc1cccc(C(=O)Nc2cccc(C(F)(F)F)c2)c1 | inactive | –
5 | COc1ccc(N2C(=O)C3C4C=CC(C4)C3C2=O)c([N+](=O)[O-])c1 (stereo not drawn) | inconclusive: 28.2 µM [activator, single point] | –
6 | Cc1ccc(C)c(NC(=O)CCN2CCCC(C)C2)c1 (stereo not drawn) | inconclusive: 0.447 µM [activator, partial curve, poor fit] | –
7 | Cc1ccccc1N(CC(=O)NC1CCCCC1)C(=O)CNC(=O)c1cccs1 | inconclusive: 5.01 µM [activator, single point] | –
8 | Cc1ccc(OCc2cc(C(=O)N(C)CCc3ccccn3)no2)cc1C | inconclusive: 0.891 µM [activator, full curve, poor fit] | –
9 | Cc1n[nH]c(C)c1S(=O)(=O)N1CCC(C(=O)Nc2cccc(F)c2)CC1 | inconclusive: 11.2 µM [activator, single point] | –
10 | C=CC[C@H]1CC(Cc2ccccc2)=C[C@H](CC=C)N1 | inactive | –
11 | CC(=O)c1cnc2c(-c3ccc(Cl)cc3)cnn2c1C | inactive | –
12 | Cc1cc(C)nc(Nc2n[nH]c(C)n2)n1 | inconclusive: 12.6 µM [activator, single point] | –
13 | O=C1NC[C@H](c2ccccc2)OC(=O)[C@@H](Cc2ccc(F)cc2)CC/C=C/C[C@H]1CC(=O)N(CCO)Cc1ccccc1 | inactive | –
14 | Cc1ccc(OCCCn2c(=O)oc3ccccc32)cc1 | inconclusive: 12.6 µM [activator, partial curve, poor fit] | –
15 | COc1ccc(-c2cnnc(N/N=C/c3ccc(O)c(O)c3)n2)cc1 | inactive | –
16 | O=C1Oc2ccccc2C(=O)/C1=C/N1CCN(c2ccccc2F)CC1 | inconclusive: 5.01 µM [activator, single point] | –
17 | COc1ccc(NC(=S)NC(NC(=O)c2ccccc2Cl)C(Cl)(Cl)Cl)c([N+](=O)[O-])c1 (stereo not drawn) | inactive | –
18 | O=C(Cc1ccc(Cl)cc1)c1ccc(O)cc1 | inconclusive: 17.8 µM [activator, single point] | –
19 | CC(=O)NCCC(=O)Nc1ccc(C(N)=O)cc1 | inconclusive: 14.1 µM [activator, single point] | –
20 | CCCCNc1nc(C)c(C(C)=O)cc1C#N | inconclusive: 5.01 µM [activator, single point] | –
21 | CN(C)N1C(N)=C(C#N)C(c2ccc(F)cc2)C2=C1CC(C)(C)CC2=O (stereo not drawn) | inactive | –
22 | C=CCN(Cc1nc(-c2ccc(OC)cc2)no1)C(=O)c1ccc2c(c1)OCO2 | inactive | –
23 | CCN1c2ccccc2N(C)C1(C)c1ccccc1 (stereo not drawn) | inactive | –
24 | Cc1c(C(=O)NNc2cc(=O)n(C)c(=O)n2C)cccc1[N+](=O)[O-] | inactive | –

Row | SMILES | Potency | activation
25 | O=C(Nc1ccccc1)c1cc2ccccc2[nH]1 | inconclusive: 2.82 µM [activator, single point] | –
26 | Cc1cc(F)ccc1S(=O)(=O)Nc1ccccc1C(=O)N1CCCC1 | inactive | –
27 | CCNC1CCC(Nc2ccnc3cc(Cl)ccc23)CC1 (stereo not drawn) | inactive | –
28 | O=[N+]([O-])c1ccccc1N=Nc1ccc(O)cc1 | inconclusive: 1.41 µM [activator, partial curve, poor fit] | –
29 | Cc1ccc(NS(=O)(=O)c2cc(C(=O)NCCSc3ccc(C)cc3)ccc2C)cc1 | inactive | –
30 | Oc1ccc(N2Cc3ccccc3C2)cc1 | inconclusive: 5.01 µM [activator, single point] | –
31 | CC1CCCCN1CCn1c(=S)[nH]c2cc3c(cc2c1=O)OCO3 (stereo not drawn) | inactive | –
32 | O=S(=O)(c1ccc(NC(=S)NCc2ccc(F)cc2)cc1)N1CCOCC1 | inconclusive: 10 µM [activator, single point] | –
33 | COCCn1c(=NC(=O)c2cc(-c3cccs3)nc3ccccc23)sc2cc(S(N)(=O)=O)ccc21 | inconclusive: 22.4 µM [activator, single point] | –
34 | O=S(=O)(Nc1ccccc1)c1cccc2nsnc12 | inconclusive: 1.78 µM [activator, full curve, poor fit] | –
35 | Cc1ccccc1NC(=S)N1CCN(C(=O)c2ccco2)CC1 | inconclusive: 1 µM [activator, partial curve, poor fit] | –
36 | CCOC(=O)CNC(=O)C1CCN(S(=O)(=O)c2ccc(-c3nn[nH]n3)cc2)CC1 | inconclusive: 5.01 µM [activator, single point] | –
37 | Cc1ccc([N+](=O)[O-])cc1N(CC(=O)NC1CCCC1)S(C)(=O)=O | inconclusive: 5.01 µM [activator, single point] | –
38 | COc1ccc(NC(=O)CSc2nc3[nH]c(=O)[nH]c(=O)c3s2)cc1OC | inactive | –
39 | c1cncc(-c2nnc(-c3cccnc3)nn2)c1 | inactive | –
40 | COc1ccc(Nc2nc(NCc3ccco3)nc(N/N=C/c3ccccc3F)n2)cc1 | inconclusive: 0.891 µM [activator, full curve, poor fit] | –
41 | COc1cc(NC(=O)C2CC(c3ccccc3Cl)=NO2)cc(OC)c1OC (stereo not drawn) | inactive | –
42 | CCCCCCC(=O)N1CCC(c2nc3c(nnn3Cc3ccccc3Cl)c(=O)[nH]2)CC1 | inactive | –
43 | NS(=O)(=O)c1ccc(NC(=O)CN2CCN(S(=O)(=O)/C=C/c3ccccc3)CC2)cc1 | inconclusive: 14.1 µM [activator, single point] | –
44 | O=[N+]([O-])c1ccc(Cl)cc1N/N=C/c1ccncc1 | active: 5.62 µM | –
45 | COc1cc(C(=O)Nc2nnc(C(F)(F)F)s2)c([N+](=O)[O-])cc1OC | inconclusive: 31.6 µM [activator, single point] | –
46 | CC(=O)Nc1ccc(S(=O)(=O)NCc2ccc3c(c2)cc(C)n3C)cc1 | inactive | –
47 | CCCNC(=O)Cc1c(O)c2ccccc2[nH]c1=O | inactive | –
48 | O=C(c1cc(-c2cccnc2)nc2ccccc12)N1CCN(S(=O)(=O)c2ccc(Cl)s2)CC1 | – | inconclusive: -60% [activator]

Excerpt: compounds 37 to 38
Row | SMILES | Potency | activation
37 | Cc1ccc([N+](=O)[O-])cc1N(CC(=O)NC1CCCC1)S(C)(=O)=O | inconclusive: 5.01 µM [activator, single point] | –
38 | COc1ccc(NC(=O)CSc2nc3[nH]c(=O)[nH]c(=O)c3s2)cc1OC | inactive | –
